The values below come from publication PMC7893028.

Numbering of substitutions follows the chain as printed. In names and notes the source's numbering stands. Results are given in words; binding and its absence hold for the method and conditions named. Binding seen in cells or lysates may run through a third protein. For part of these data: A result given as binding can be weak or reduced; the word gives no strength. Sequences can lack the tags named with a protein.

Holding throughout (experiment): co-IP; 293T cells co-transfected with HA-CLEC18A or HA-CLEC18A(S339R) and Flag-TLR3 (full-length or deletion mutants), 48 h; lysates precipitated with anti-Flag mAb Sepharose beads, blot with anti-HA and anti-Flag; isotype mAb beads as control
In assay [1] the target is Flag-tagged human TLR3 deletion mutant without leucine-rich repeat (LRR) domain (TLR3ΔLRR) (human).
For assay [2], the target named is Flag-tagged human TLR3ΔLRR1–3 (TLR3 without 1–3 LRR repeats) (human).
The target of assay [3] is Flag-tagged human TLR3ΔLRR19–22 (TLR3 without 19–22 LRR repeats) (human).

B1: HA-tagged human CLEC18A (pMACS.Kk-HA(C)-hCLEC18A) (protein, UniProt A5D8T8 27-446)
chain: EVWPPQLQEQAPMAGALNRKESFLLLSLHNRLRSWVQPPAADMRRLDWSDSLAQLAQARAALCGTPTPSLASGLWRTLQVGWNMQLLPAGLVSFVEVVSLWFAEGQRYSHAAGECARNATCTHYTQLVWATSSQLGCGRHLCSAGQAAIEAFVCAYSPRGNWEVNGKTIVPYKKGAWCSLCTASVSGCFKAWDHAGGLCEVPRNPCRMSCQNHGRLNISTCHCHCPPGYTGRYCQVRCSLQCVHGRFREEECSCVCDIGYGGAQCATKVHFPFHTCDLRIDGDCFMVSSEADTYYRARMKCQRKGGVLAQIKSQKVQDILAFYLGRLETTNEVIDSDFETRNFWIGLTYKTAKDSFRWATGEHQAFTSFAFGQPDNHGFGNCVELQASAAFNWNDQRCKTRNRYICQFAQEHISRWGPGS
Turning to B1, the results for the binding result in assay [1], in assay [2] and in assay [3] were “no binding”, “binds” and “binds”, respectively.

B2: HA-tagged human CLEC18A(S339R) (pMACS.Kk-HA(C)-hCLEC18A(S339R)) (protein, UniProt A5D8T8 27-446)
chain: B1 chain with S313R
With B2, the binding result is on record as “no binding” in assay [1], “binds” in assay [2] and “binds” in assay [3].
